{"source": "PubChem BioAssay AID493246 | Drosophila RNAi Screening Center – 2011", "purpose": "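Identify essential fly genes by loss of cell viability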 (primary screen)", "cell system": "Drosophila Kc and S2R+ cells", "reagent": "long dsRNA against Drosophila genes", "measured": "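Cell number per well after knock-down, printed as raw plate values; calls were based on per-plate z-scores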", "scale": "Kc cell number and S2R+ cell number: higher = more cells remaining", "call rule": "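Counted as a hit if cell number falls by a z-score of at least 3 within its plate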", "note": "The deposit covers about 21,000 reagents; this is an unselected part of those with a known target gene and a result. In the full data, 429 (2%) were called active. 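Values are raw and not normalised between plates; calls rest on per-plate z-scores that were not deposited.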 Not given: the amount of reagent, the time to read-out."}
{"Gene": "CG44251", "Kc cell number, rep 1": 1.49e6, "Kc cell number, rep 2": 1.54e6, "S2R+ cell number, rep 1": 1.18e6, "S2R+ cell number, rep 2": 1.31e6, "outcome": "inactive"}
{"Gene": "CG11037", "Kc cell number, rep 1": 1.33e6, "Kc cell number, rep 2": 1.46e6, "S2R+ cell number, rep 1": 1.33e6, "S2R+ cell number, rep 2": 1.34e6, "outcome": "inactive"}
{"Gene": "AdoR", "Kc cell number, rep 1": 1.44e6, "Kc cell number, rep 2": 1.44e6, "S2R+ cell number, rep 1": 9.91e5, "S2R+ cell number, rep 2": 1.10e6, "outcome": "inactive"}
{"Gene": "SmD2", "Kc cell number, rep 1": 1.35e6, "Kc cell number, rep 2": 1.47e6, "S2R+ cell number, rep 1": 7.70e5, "S2R+ cell number, rep 2": 8.92e5, "outcome": "inactive"}
{"Gene": "Dcr-1", "Kc cell number, rep 1": 1.50e6, "Kc cell number, rep 2": 1.62e6, "S2R+ cell number, rep 1": 1.17e6, "S2R+ cell number, rep 2": 1.24e6, "outcome": "inactive"}
{"Gene": "CG13566", "Kc cell number, rep 1": 1.68e6, "Kc cell number, rep 2": 1.69e6, "S2R+ cell number, rep 1": 1.40e6, "S2R+ cell number, rep 2": 1.39e6, "outcome": "inactive"}
{"Gene": "CG13133", "Kc cell number, rep 1": 1.78e6, "Kc cell number, rep 2": 1.82e6, "S2R+ cell number, rep 1": 1.20e6, "S2R+ cell number, rep 2": 1.35e6, "outcome": "inactive"}
{"Gene": "Ptp4E", "Kc cell number, rep 1": 5.88e5, "S2R+ cell number, rep 1": 9.10e5, "outcome": "inactive"}
{"Gene": "CG10195", "Kc cell number, rep 1": 1.71e6, "Kc cell number, rep 2": 1.73e6, "S2R+ cell number, rep 1": 1.26e6, "S2R+ cell number, rep 2": 3.06e5, "outcome": "inactive"}
{"Gene": "GstE10", "Kc cell number, rep 1": 1.57e6, "Kc cell number, rep 2": 1.65e6, "S2R+ cell number, rep 1": 1.29e6, "S2R+ cell number, rep 2": 1.39e6, "outcome": "inactive"}
{"Gene": "Irp-1B", "Kc cell number, rep 1": 1.48e6, "Kc cell number, rep 2": 1.50e6, "S2R+ cell number, rep 1": 1.30e6, "S2R+ cell number, rep 2": 1.33e6, "outcome": "inactive"}
{"Gene": "yellow-f2", "Kc cell number, rep 1": 1.92e6, "Kc cell number, rep 2": 1.92e6, "S2R+ cell number, rep 1": 1.37e6, "S2R+ cell number, rep 2": 1.45e6, "outcome": "inactive"}
{"Gene": "beta3GalTII", "Kc cell number, rep 1": 1.73e6, "Kc cell number, rep 2": 1.79e6, "S2R+ cell number, rep 1": 1.28e6, "S2R+ cell number, rep 2": 1.46e6, "outcome": "inactive"}
{"Gene": "CG7884", "Kc cell number, rep 1": 1.32e6, "Kc cell number, rep 2": 1.43e6, "S2R+ cell number, rep 1": 1.10e6, "S2R+ cell number, rep 2": 1.13e6, "outcome": "inactive"}
{"Gene": "SkpE", "Kc cell number, rep 1": 1.54e6, "Kc cell number, rep 2": 1.55e6, "S2R+ cell number, rep 1": 1.05e6, "S2R+ cell number, rep 2": 1.14e6, "outcome": "inactive"}
{"Gene": "Xe7", "Kc cell number, rep 1": 1.66e6, "Kc cell number, rep 2": 1.97e6, "S2R+ cell number, rep 1": 1.26e6, "S2R+ cell number, rep 2": 1.36e6, "outcome": "inactive"}
{"Gene": "CG9449", "Kc cell number, rep 1": 1.45e6, "Kc cell number, rep 2": 1.49e6, "S2R+ cell number, rep 1": 1.19e6, "S2R+ cell number, rep 2": 1.31e6, "outcome": "inactive"}
{"Gene": "FucTC", "Kc cell number, rep 1": 1.13e6, "Kc cell number, rep 2": 1.29e6, "S2R+ cell number, rep 1": 1.08e6, "S2R+ cell number, rep 2": 1.15e6, "outcome": "inactive"}
{"Gene": "CG31807", "Kc cell number, rep 1": 1.42e6, "Kc cell number, rep 2": 1.48e6, "S2R+ cell number, rep 1": 9.23e5, "S2R+ cell number, rep 2": 1.10e6, "outcome": "inactive"}
{"Gene": "CG11226", "Kc cell number, rep 1": 1.42e6, "Kc cell number, rep 2": 1.52e6, "S2R+ cell number, rep 1": 1.27e6, "S2R+ cell number, rep 2": 1.34e6, "outcome": "inactive"}
{"Gene": "Su(fu)", "Kc cell number, rep 1": 1.53e6, "Kc cell number, rep 2": 1.59e6, "S2R+ cell number, rep 1": 1.28e6, "S2R+ cell number, rep 2": 1.41e6, "outcome": "inactive"}

Look-ups from above.
FucTC, outcome: inactive
AdoR, Kc cell number, rep 1 → 1.44e6
